{"sequences": {"note": "By UniProt entry, the sequences of proteins in these tests, tags left out.", "UniProt Q8R429": "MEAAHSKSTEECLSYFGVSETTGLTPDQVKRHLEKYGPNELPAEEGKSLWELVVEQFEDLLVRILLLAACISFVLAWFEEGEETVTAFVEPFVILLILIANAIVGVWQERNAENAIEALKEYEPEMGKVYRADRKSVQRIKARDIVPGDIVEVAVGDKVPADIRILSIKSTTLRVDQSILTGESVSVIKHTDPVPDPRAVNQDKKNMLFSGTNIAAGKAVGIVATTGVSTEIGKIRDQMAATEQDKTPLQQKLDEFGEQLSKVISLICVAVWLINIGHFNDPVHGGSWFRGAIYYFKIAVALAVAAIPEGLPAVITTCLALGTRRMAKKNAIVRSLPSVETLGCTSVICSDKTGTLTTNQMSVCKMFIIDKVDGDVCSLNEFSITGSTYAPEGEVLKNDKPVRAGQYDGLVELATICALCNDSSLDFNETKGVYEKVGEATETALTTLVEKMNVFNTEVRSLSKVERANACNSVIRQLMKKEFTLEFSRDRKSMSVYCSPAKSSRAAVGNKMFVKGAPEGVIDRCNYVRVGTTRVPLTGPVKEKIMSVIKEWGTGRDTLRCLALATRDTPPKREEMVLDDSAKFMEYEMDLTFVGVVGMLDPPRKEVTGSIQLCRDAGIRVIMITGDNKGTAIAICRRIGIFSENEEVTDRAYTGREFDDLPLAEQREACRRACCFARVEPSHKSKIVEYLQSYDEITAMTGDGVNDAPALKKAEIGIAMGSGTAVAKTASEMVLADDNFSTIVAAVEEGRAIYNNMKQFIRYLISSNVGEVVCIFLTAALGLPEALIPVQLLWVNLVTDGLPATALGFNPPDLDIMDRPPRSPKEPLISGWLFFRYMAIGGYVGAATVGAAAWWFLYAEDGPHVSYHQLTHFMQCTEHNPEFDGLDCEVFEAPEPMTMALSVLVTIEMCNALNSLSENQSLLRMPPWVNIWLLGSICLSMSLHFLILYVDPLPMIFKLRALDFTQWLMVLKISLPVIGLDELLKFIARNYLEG"}, "source": "paper PMC12815910", "target": "T1, Flag-MCARE (muscle-enriched Ca2+ regulator; transmembrane protein 233) (mouse) (UniProt D3Z1U7)", "T1 sequence": "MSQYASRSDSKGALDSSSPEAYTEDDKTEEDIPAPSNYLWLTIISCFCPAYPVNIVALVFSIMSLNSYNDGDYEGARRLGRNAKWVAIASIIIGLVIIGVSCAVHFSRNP", "assay": "co-IP; HEK293 cells co-transfected; lysates (500 ug protein) in Co-IP buffer (20 mM NaPO4, 150 mM NaCl, 2 mM MgCl2, 0.1% NP-40, 10% glycerol, pH 7.4, 1 mM DTT) incubated with anti-DDDDK-tag mAb-magnetic agarose 60 min at 4 °C; eluted with 3× FLAG peptide; Western blot", "note": "Results are given in words; binding and its absence hold for the method and conditions named. Binding seen in cells or lysates may run through a third protein. Some entries that bind do so weakly or less than the wild type. Tags and fused reporters may be left off the sequences shown.", "data": [{"substance": "Myc-SERCA1a (sarco/endoplasmic reticulum Ca2+ ATPase 1a) (from UniProt Q8R429 1-994)", "values": [{"measurement": "binding", "value": "binds"}]}]}
